Data as given in PubChem BioAssay AID1259254 (NCATS, 2017).

Test: 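Finding genes that stop cells copying their DNA twice in one cycle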 (primary screen)
Cell system: human HCT116 colorectal cancer cells
Knock-down reagent: single siRNA against human genes
Time to read-out: 3 days
Measured: 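Nuclei stained with Hoechst and imaged; cell-cycle phase assigned by DNA content; G2 share scaled per plate, non-targeting siRNA 0%, GMNN siRNA 100%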
Direction: G2 robust z-score and G2 cells, % of GMNN control: higher = more G2 cells, more excess DNA replication; raw share of cells in G2: higher = larger share of cells with G2 DNA content
Rule for the call: 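An siRNA counts as active if its G2 robust z-score lies at least 5 MADs above the screen median; here such calls match roughly 38% of GMNN control or more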
In all, the deposit lists about 59,000 reagents; below is an unselected part. Of all reagents, about 1,550 (2.6%) got an active call. 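G2 share is only a proxy for re-replication; each gene was hit by three separate siRNAs, and active genes were retested.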 Raw values are not corrected between plates. A number with no mark means an inactive call. Reagents against one gene are numbered here. Not given: the amount of reagent.

G2 robust z-score	G2 cells, % of GMNN control	raw share of cells in G2 (%)	gene symbol	reagent
2.08	17.6	10.3	TYMS (GeneID 7298)	1
0.00537	3.01	5.38	TYMS (GeneID 7298)	2
0.777	8.43	9.16	TYMS (GeneID 7298)	3
-0.955	-3.75	2.72	SPRR3 (GeneID 6707)	1
-0.381	0.284	5.78	SPRR3 (GeneID 6707)	2
0.672	7.7	7.19	SPRR3 (GeneID 6707)	3
1.23	11.6	8.34	FGF3 (GeneID 2248)	1
0.469	6.26	5.98	FGF3 (GeneID 2248)	2
-0.603	-1.28	4.7	FGF3 (GeneID 2248)	3
-0.775	-2.49	4.55	IFT88 (GeneID 8100)	1
2.5	20.6	11.3	IFT88 (GeneID 8100)	2
-0.758	-2.37	3.38	IFT88 (GeneID 8100)	3
2.91	23.4	13	OR10Z1 (GeneID 128368)	1
0.832	8.82	5.9	OR10Z1 (GeneID 128368)	2
-0.672	-1.76	1.94	OR10Z1 (GeneID 128368)	3
-0.596	-1.23	4.07	PLAA (GeneID 9373)	1
-0.903	-3.39	3	PLAA (GeneID 9373)	2
-0.918	-3.49	4.12	PLAA (GeneID 9373)	3
-0.149	1.92	4.27	C2orf92 (GeneID 728537)	1
4.74	36.3	15.7	C2orf92 (GeneID 728537)	2
0.109	3.73	5.01	C2orf92 (GeneID 728537)	3
-1.05	-4.45	3.62	FH (GeneID 2271)	1
2.19	18.4	12.3	FH (GeneID 2271)	2
0.862	9.03	6.87	FH (GeneID 2271)	3
-0.673	-1.76	3.17	RPRML (GeneID 388394)	1
0.262	4.81	5.5	RPRML (GeneID 388394)	2
0.549	6.83	7.56	RPRML (GeneID 388394)	3
0.277	4.92	6.17	EFCAB12 (GeneID 90288)	1
1.63	14.4	7.52	EFCAB12 (GeneID 90288)	2
1.05	10.3	6.2	EFCAB12 (GeneID 90288)	3
1.41	12.9	10.2	MRPS34 (GeneID 65993)	1
-0.883	-3.25	3.15	MRPS34 (GeneID 65993)	2
-0.558	-0.96	2.44	MRPS34 (GeneID 65993)	3
1.24	11.7	8.77	PNMA5 (GeneID 114824)	1
1.66	14.6	7.69	PNMA5 (GeneID 114824)	2
-0.881	-3.23	0.875	PNMA5 (GeneID 114824)	3
0.57	6.97	8.22	COLQ (GeneID 8292)	1
0.919	9.44	7.64	COLQ (GeneID 8292)	2
-0.0573	2.56	4.25	COLQ (GeneID 8292)	3
1.04	10.3	7.53	SLX4 (GeneID 84464)	1
-0.848	-3	2.57	SLX4 (GeneID 84464)	2
-0.774	-2.48	1.65	SLX4 (GeneID 84464)	3
-1.03	-4.26	2.52	NCKAP5 (GeneID 344148)	1
-0.579	-1.1	2.78	NCKAP5 (GeneID 344148)	2
0.4	5.78	6.52	NCKAP5 (GeneID 344148)	3
-0.229	1.36	4.33	LARP4B (GeneID 23185)	1
1.76	15.4	9.3	LARP4B (GeneID 23185)	2
-0.737	-2.22	5.48	LARP4B (GeneID 23185)	3
0.764	8.35	8.33	CNGA2 (GeneID 1260)	1
-0.198	1.57	5.31	CNGA2 (GeneID 1260)	2
-0.34	0.576	4.6	CNGA2 (GeneID 1260)	3
6.37 (active)	47.8	27.7	CIDEA (GeneID 1149)	1
-0.42	0.011	4.09	CIDEA (GeneID 1149)	2
1.06	10.4	7.61	CIDEA (GeneID 1149)	3
0.419	5.92	6.4	ZPLD1 (GeneID 131368)	1
-0.392	0.206	3.17	ZPLD1 (GeneID 131368)	2
-0.171	1.76	3.22	ZPLD1 (GeneID 131368)	3
-0.405	0.116	4.75	SIRPA (GeneID 140885)	1
0.37	5.57	6.74	SIRPA (GeneID 140885)	2
-1.07	-4.56	3.78	SIRPA (GeneID 140885)	3
-0.503	-0.573	5.03	EIF4E (GeneID 1977)	1
1.02	10.1	9.12	EIF4E (GeneID 1977)	2
1	10	7.23	EIF4E (GeneID 1977)	3
-0.286	0.955	6.11	PHF21B (GeneID 112885)	1
-0.239	1.28	5.52	PHF21B (GeneID 112885)	2
-0.0455	2.65	5.48	PHF21B (GeneID 112885)	3
-0.403	0.134	5.39	ITM2B (GeneID 9445)	1
0.219	4.51	5.82	ITM2B (GeneID 9445)	2
1.37	12.6	7.98	ITM2B (GeneID 9445)	3
